Data from paper doi:10.1101/2024.07.31.606019.
These are yes or no findings as the source states them, for the method shown. Binding seen in cells or lysates may run through a third protein. Some binding calls cover weakened binding; strength is not graded here. Where a sequence is shown, tags or fusion partners need not be part of it.

By UniProt entry, the sequences of proteins in these tests, tags left out.
UniProt Q05609: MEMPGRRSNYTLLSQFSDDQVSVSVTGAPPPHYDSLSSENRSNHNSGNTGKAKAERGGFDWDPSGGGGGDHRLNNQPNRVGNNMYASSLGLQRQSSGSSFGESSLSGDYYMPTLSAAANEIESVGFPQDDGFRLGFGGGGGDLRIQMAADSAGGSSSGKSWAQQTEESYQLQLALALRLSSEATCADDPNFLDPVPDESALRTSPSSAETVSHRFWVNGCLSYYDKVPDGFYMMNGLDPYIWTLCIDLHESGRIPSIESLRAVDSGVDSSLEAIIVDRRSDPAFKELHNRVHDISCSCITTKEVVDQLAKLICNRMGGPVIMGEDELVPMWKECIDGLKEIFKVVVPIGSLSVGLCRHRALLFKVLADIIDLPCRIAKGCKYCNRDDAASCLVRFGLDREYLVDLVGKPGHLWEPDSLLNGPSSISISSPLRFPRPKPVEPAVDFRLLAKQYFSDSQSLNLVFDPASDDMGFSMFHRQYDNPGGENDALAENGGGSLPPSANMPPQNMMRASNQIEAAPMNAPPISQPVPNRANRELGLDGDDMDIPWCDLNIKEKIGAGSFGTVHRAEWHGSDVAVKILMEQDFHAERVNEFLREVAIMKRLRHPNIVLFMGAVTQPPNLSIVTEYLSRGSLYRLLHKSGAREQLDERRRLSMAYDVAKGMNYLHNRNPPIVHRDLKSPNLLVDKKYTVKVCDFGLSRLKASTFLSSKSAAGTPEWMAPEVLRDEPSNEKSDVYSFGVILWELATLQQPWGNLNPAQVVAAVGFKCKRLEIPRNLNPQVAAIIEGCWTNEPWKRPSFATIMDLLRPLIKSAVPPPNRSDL

Key:
[1] = target: nYFP-CTR1 (Constitutive Triple Response 1) (Arabidopsis thaliana) (UniProt Q05609); experiment: split reporter
[2] = target: GFP-CTR1 (35S:GFP-CTR1) (Arabidopsis thaliana) (UniProt Q05609); experiment: co-IP

Binder | binding [1] | binding [2]
cYFP-ATG8a (protein, UniProt Q8LEM4 1-117) MAKSSFKISNPLEARMSESSRIREKYPDRIPVIVEKAGQSDVPDIDKKKYLVPADLTVGQFVYVVRKRIKLGAEKAIFVFVKNTLPPTAALMSAIYEEHKDEDGFLYMTYSGENTFG | binds | –
myc-ATG8a (35S:Myc-ATG8a) (protein, UniProt Q8LEM4 1-117) MAKSSFKISNPLEARMSESSRIREKYPDRIPVIVEKAGQSDVPDIDKKKYLVPADLTVGQFVYVVRKRIKLGAEKAIFVFVKNTLPPTAALMSAIYEEHKDEDGFLYMTYSGENTFG | – | binds
